Article PMC4838890, “Dynamic and flexible H3K9me3 bridging via HP1β dimerization establishes a plastic state of condensed chromatin” (Nature Communications, 2016)

Tests used:
H3KC9me3 mononucleosome = test: ITC, H3KC9me3 mononucleosome; type: binding, Xenopus laevis; settings: pH 7.5, 25°C
Excerpt: Mononucleosomes were reconstituted on a 187 bp DNA fragment containing the ‘601' sequence flanked on each site by a linker of 20 bp[55]. Oligonucleosomes were reconstituted on a 12 × 200 bp × 601 template. Plasmids carrying the respective inserts were purified using a Giga kit (Qiagen, Hilden, Germany). Templates for reconstitution were released from plasmids by restriction digest with BsoBI for mononucleosomes and a mix of DdeI, BfuCI, HaeII and EcoRI for oligonucleosomes. To separate vector backbone from DNA used for chromatin assembly stepwise precipitation with polyethylene glycol (PEG) 6000/0.5 M NaCl was carried out (final PEG concentration 2–9% and 20% (w/v)). DNA pellets were washed with 70% (v/v) ethanol and dissolved in water. Double stranded, short, biotinylated DNA linkers were ligated to the DNA template before chromatin reconstitution.
(§1) ITC measurements were performed on a iTC200 calorimeter (Microcal, Malvern, UK) at 25°C in binding buffer (10 mM triethanolamine (pH 7.5), 20 or 150 mM NaCl, 0.1 mM EDTA). Reaction heats were recorded by sequences of 37 injections of 1.8 mM hHP1β, spaced at 120 s intervals, into 250 μl of 60 μM H3 peptides, nucleosomes or oligonucleosomal arrays under constant stirring at 1,000 r.p.m. (injection #1–10: 0.5 μl each; injection #11–32: 1 μl each; injection #33–37: 2 μl each). Heats of dilution, obtained by the titration of hHP1β into buffer, were substracted from raw data before analysis. Raw data were integrated, normalized and the apparent heat change (Δq) of the reaction was plotted against the molecular ratio using the Origin software. For the determination of apparent enthalpy changes (ΔHapp), the molar association constant (KA), and the stoichiometry (n) of the interaction, non-linear least-square fitting of the Δq values was performed by the Origin software using a binding model of one set of identical binding sites.
Supplementary Table 1: Summary of conditions used in the different experiments of this study.
experiment result modification template Temp. [NaCl] [MgCl2] […]

H3KC9me3 peptide = test: ITC, H3KC9me3 peptide; type: binding; settings: pH 7.5, 25°C
Procedure: as §1
Supplementary Table 1: Summary of conditions used in the different experiments of this study. experiment result modification template Temp. [NaCl] [MgCl2] […]
chromatin Fig. 1e,f; Fig. S1f-h; H3K9me3 oligo- 4 150 5 coprecipitation Fig. S2b nucleosomes
Fig. S7d,f; Fig.S9c nucleosomes […]
chromatin sedimentation Fig. 4a; H3K9me3 oligo- 4 150 0 […]

| Substance | N (stoichiometry of interaction) (H3KC9me3 mononucleosome; 20 mM NaCl) | N (stoichiometry of interaction) (H3KC9me3 mononucleosome; 150 mM NaCl) | N (stoichiometry of interaction) (H3KC9me3 peptide; 20 mM NaCl) | N (stoichiometry of interaction) (H3KC9me3 peptide; 150 mM NaCl) |
| --- | --- | --- | --- | --- |
| hHP1β I161A: CSD point mutant of hHP1β incapable of dimerization | 1.1±0.4 | 1.2±0.3 | – | – |
| hHP1β WT: recombinant human heterochromatin protein 1β (GenBank NM_001127228), 185 aa | 2.1±0.3 | 1.4±0.3 | 1.0±0.0 | 1.0±0.1 |
